Assay results published in patent publication US20080187512A1, “Treatment for spinal muscular atrophy” (Academia Sinica, priority 2007, published 2008).
At least one compound was matched to its structure with a doubt left. Some entries share one result that the patent states for a list of compounds.

Tested on: SMN2
Assay: SMN2 splicing pattern, semi-quantitative RT-PCR in SMN2-NSC34 cells
Assay type: cell-based, mouse
Parameters: SMN2 splicing pattern SMN2-NSC34: key to the marks not given beside the values
Description: Cell culture and chemical/dsRNA treatment. Mouse embryonic fibroblasts (MEFs) were prepared using the standard protocol. Briefly, E13.5 day embryo was isolated; the uterine deciduas were cut away, and the yolk sac was removed. The embryo was then scraped out to remove non-fibroblastic tissue, and the head severed for genotyping. Embryo body was minced in 0.25% Trypsin-EDTA and incubated for 30 min. It was then added to MEF culture media, and the cell suspension spun for ˜5 min at 1,000 rpm in the tissue culture centrifuge to pellet cells. The supernatant was aspirated off and the cell pellet immediately resuspended in 10 mL of fresh MEF culture media. The MEFs were allowed to reach confluency so the cells could be passaged for further experiments. […]
Semi-quantitative PCR/RT-PCR. […] The gel images were digitally captured with a CCD camera and analyzed with the Alphalmager™. […] Relative total SMN2 transcript levels were determined from Stat5A1*6 transfected SMN2-NSC34 cells in a minimum of three independent experiments. Differences in ratios were determined to be significant by an independent two-tailed t-test, with *, P<0.05, **, P<0.005, ***, p<0.001.

SMILES: CC(/C=C/C(=O)NO)=C\[C@@H](C)C(=O)c1ccc(N(C)C)cc1 [Trichostatin A (TSA), Trichostatin A]
- treatment time after which the full length SMN2 expression level was enhanced (SMA-like MEFs and SMN2-NSC34 cells (FIG. 1)): 4 to 6 h
- SMN2 splicing pattern SMN2-NSC34 (SMN2-NSC34 cells, TSA 10 nM, sodium butyrate 25 mM, aclarubicin 80 nM, sodium vanadate 100 μM): ++
